Measured data: PubChem BioAssay AID652259 (Drosophila RNAi Screening Center, 2013)
Aim: 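Knock-downs that push a Wingless-driven reporter up or down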 (primary screen). System: Drosophila clone 8 imaginal disc epithelial cells. Knock-down reagent: long dsRNA against Drosophila genes. Conditions: pathway stimulated by co-transfected Wingless expression plasmid. Detection: 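Firefly luciferase from a tcf-site Wingless reporter, measured alongside co-transfected Renilla luciferase that tracks transfection; pathway stimulated by a Wingless plasmid; the firefly-to-Renilla ratio is not deposited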. Scale: firefly reporter light: higher = more Wg reporter light, before normalisation; Renilla control light: higher = more transfected or surviving cells. Active means: 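Strong candidates differ from their plate mean by at least two out of four per-plate statistical tests; weak candidates meet just one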. Meaning of the calls: active = candidate regulator (raises or lowers reporter); inactive = not a candidate.
The deposit covers about 22,000 reagents; shown is a random part of those with a known target gene and a result. Of all reagents, 233 (1.1%) are marked active. 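Light values are raw, unnormalised plate reads; the ratio scores behind the reporter calls were not deposited.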 Entries without a mark were called inactive. A plus sign joins genes that one reagent is predicted to hit. Not given: the amount of reagent, the time to read-out, the dose of the treatment.

target | amplicon | reporter change call, replicate 1 | firefly reporter light, replicate 1 | firefly reporter light, replicate 2 | Renilla control light, replicate 1 | Renilla control light, replicate 2
Nmdar1 (NMDA receptor 1) | DRSC12071 | – | 3745 | – | 1867 | –
Nmdar1 (NMDA receptor 1) | DRSC12356 | – | 9302 | – | 2553 | –
CG12971 | DRSC11681 | – | 15812 | – | 4565 | –
CG15536 | DRSC15072 | – | 11469 | 6.96e5 | 4679 | 3.64e5
CG15536 | DRSC22844 | – | 5.45e5 | 5.94e5 | 1.93e5 | 2.47e5
CG30183 | DRSC04450 | – | 1808 | 6795 | 720 | 2349
CG30183 | DRSC04472 | – | 2810 | 10305 | 656 | 2864
CG2898 | DRSC18238 | – | 13836 | – | 8907 | –
CG14105 | DRSC10107 | – | 5189 | – | 2248 | –
Jon99Cii (Jonah 99Cii) | DRSC16858 | – | 10565 | – | 4466 | –
Jon99Cii (Jonah 99Cii) | DRSC22574 | – | 7.12e5 | 6.98e5 | 3.11e5 | 1.11e5
CG11438 | DRSC11660 | – | 19856 | – | 5712 | –
Sptr (Sepiapterin reductase) | DRSC18719 | – | 2371 | 5213 | 795 | 1881
Lipt2 (Lipoyl(octanoyl) transferase 2) | DRSC12338 | – | 10164 | – | 4631 | –
Lipt2 (Lipoyl(octanoyl) transferase 2) | DRSC22610 | – | 4.48e5 | 4.51e5 | 1.83e5 | 1.51e5
Sps2 (Selenophosphate synthetase 2) | DRSC03441 | – | 1449 | 5824 | 781 | 2745
CG9164 | DRSC19087 | – | 3389 | – | 294 | –
CG9164 | DRSC20162 | – | 3186 | 7441 | 1408 | 2891
Rbbp5 (Retinoblastoma binding protein 5) | DRSC11778 | – | 15410 | – | 3686 | –
Nubp2 (NUBP iron-sulfur cluster assembly factor 2) | DRSC11758 | – | 19830 | – | 5900 | –
CG10340 | DRSC14232 | – | 2969 | 7113 | 1596 | 2096
CG5758 | DRSC02889 | – | 2038 | 7779 | 617 | 2016
CG5758 | DRSC02890 | – | 1945 | 5143 | 840 | 2160
CG30048 | DRSC22205 | – | 4.42e5 | 5.33e5 | 1.94e5 | 2.24e5
rasp | DRSC08191 | – | 5185 | – | 2385 | –
CG14495 | DRSC06466 | – | 5808 | – | 1747 | –
stck (steamer duck) | DRSC17070 | – | 15595 | – | 4118 | –
Or65a (Odorant receptor 65a) | DRSC08808 | – | 2050 | – | 266 | –
CG6791 | DRSC16118 | – | 10374 | – | 3385 | –
Ebp (Ejaculatory bulb protein) | DRSC04048 | – | 15019 | – | 4176 | –
sdt (stardust) | DRSC17555 | – | 2711 | – | 647 | –
sdt (stardust) | DRSC17556 | – | 3145 | – | 1286 | –
sdt (stardust) | DRSC17860 | – | 16819 | – | 7857 | –
sdt (stardust) | DRSC17861 | – | 21945 | – | 9450 | –
sdt (stardust) | DRSC18022 | – | 19709 | – | 9413 | –
sdt (stardust) | DRSC18025 | – | 15770 | – | 4688 | –
sdt (stardust) | DRSC18026 | – | 12336 | – | 2252 | –
sdt (stardust) | DRSC18027 | – | 20903 | – | 6789 | –
sdt (stardust) | DRSC18108 | – | 24328 | – | 11408 | –
CG13947 | DRSC00365 | – | 4736 | 6794 | 1852 | 4208
CG33491 (retired record) + CG33496 (retired record) + CG33487 (retired record) + 1 more | DRSC22969 | – | 5.00e5 | 4.38e5 | 2.51e5 | 344
CenG1A (Centaurin gamma 1A) | DRSC02538 | – | 2084 | 6384 | 1072 | 3312
CenG1A (Centaurin gamma 1A) | DRSC03505 | – | 3024 | 6600 | 1082 | 3317
CenG1A (Centaurin gamma 1A) | DRSC03506 | – | 2416 | 6836 | 1141 | 2538
exd (extradenticle) | DRSC20330 | – | 19224 | – | 9474 | –
E(spl)mbeta-HLH (Enhancer of split mbeta, helix-loop-helix) | DRSC16697 | – | 1712 | 7264 | 664 | 2960
CG31041 | DRSC13951 | – | 4378 | – | 1595 | –
hng1 (hinge1) | DRSC04555 | – | 9670 | – | 2726 | –
Lk6 (Lk6 kinase) | DRSC12867 | – | 3196 | – | 1722 | –
Lk6 (Lk6 kinase) | DRSC16728 | – | 5880 | – | 2787 | –
Hrb27C (Heterogeneous nuclear ribonucleoprotein at 27C) | DRSC03347 | – | 15683 | – | 3512 | –
CG6696 | DRSC20004 | – | 13303 | – | 7264 | –
Klp59C (Kinesin-like protein at 59C) | DRSC04348 | – | 3261 | 9971 | 715 | 3051
CG31464 | DRSC14345 | – | 15848 | – | 4848 | –
Sh (Shaker) | DRSC19214 | – | 6633 | – | 427 | –
Sh (Shaker) | DRSC19220 | – | 5600 | 7.57e5 | 1884 | 3.41e5
Sh (Shaker) | DRSC19785 | – | 27841 | – | 11142 | –
Sh (Shaker) | DRSC20055 | – | 20824 | – | 10151 | –
Sh (Shaker) | DRSC22567 | – | 7.84e5 | 8.27e5 | 3.42e5 | 2.98e5
CG5157 | DRSC10488 | – | 6886 | – | 2749 | –
Polr1A (RNA polymerase I subunit A) | DRSC07535 | – | 9604 | – | 3824 | –
Sik3 (Salt-inducible kinase 3) | DRSC06505 | – | 15348 | – | 4160 | –
Sik3 (Salt-inducible kinase 3) | DRSC06771 | – | 15451 | – | 4764 | –
CG12355 | DRSC09381 | – | 3576 | – | 1419 | –
CG12355 | DRSC09883 | – | 7545 | – | 2460 | –
CG8461 | DRSC16424 | – | 9354 | – | 4586 | –
Tbp (TATA binding protein) | DRSC04662 | Wg reporter activity lowered (active) | 797 | 3044 | 657 | 2535
Eh (Eclosion hormone) | DRSC16660 | – | 22208 | – | 4089 | –
Bem46 | DRSC00275 | – | 5457 | 6108 | 1250 | 1723
Oatp30B (Organic anion transporting polypeptide 30B) | DRSC02727 | – | 12244 | – | 2652 | –
Surf4 (Surfeit 4) | DRSC16875 | – | 15357 | – | 3376 | –
Fancd2 | DRSC15208 | – | 16555 | – | 4682 | –
Fancd2 | DRSC22763 | – | 3.61e5 | 3.91e5 | 1.52e5 | 11792
